Test in all cases: flow cytometry on cells; transduced WOP cells incubated 1 h at 37°C in neat supernatant containing EphA2-Fc; detected with Alexa 488 anti mouse IgG
(Flow cytometry measures light scatter and fluorescence of single cells or particles in a stream.)

Protein sequences, listed by entry. Tags and fused reporters are not part of them. Residues count along the entry.
UniProt P52800, residues 29-336: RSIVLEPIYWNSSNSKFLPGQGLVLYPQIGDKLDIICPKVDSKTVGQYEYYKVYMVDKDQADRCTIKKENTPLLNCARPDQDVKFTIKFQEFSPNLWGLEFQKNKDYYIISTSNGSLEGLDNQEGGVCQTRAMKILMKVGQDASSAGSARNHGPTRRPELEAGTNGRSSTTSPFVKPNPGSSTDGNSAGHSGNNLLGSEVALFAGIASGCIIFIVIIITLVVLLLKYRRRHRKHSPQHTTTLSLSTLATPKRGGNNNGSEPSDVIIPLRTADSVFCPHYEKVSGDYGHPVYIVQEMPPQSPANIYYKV
UniProt P29317, residues 24-537: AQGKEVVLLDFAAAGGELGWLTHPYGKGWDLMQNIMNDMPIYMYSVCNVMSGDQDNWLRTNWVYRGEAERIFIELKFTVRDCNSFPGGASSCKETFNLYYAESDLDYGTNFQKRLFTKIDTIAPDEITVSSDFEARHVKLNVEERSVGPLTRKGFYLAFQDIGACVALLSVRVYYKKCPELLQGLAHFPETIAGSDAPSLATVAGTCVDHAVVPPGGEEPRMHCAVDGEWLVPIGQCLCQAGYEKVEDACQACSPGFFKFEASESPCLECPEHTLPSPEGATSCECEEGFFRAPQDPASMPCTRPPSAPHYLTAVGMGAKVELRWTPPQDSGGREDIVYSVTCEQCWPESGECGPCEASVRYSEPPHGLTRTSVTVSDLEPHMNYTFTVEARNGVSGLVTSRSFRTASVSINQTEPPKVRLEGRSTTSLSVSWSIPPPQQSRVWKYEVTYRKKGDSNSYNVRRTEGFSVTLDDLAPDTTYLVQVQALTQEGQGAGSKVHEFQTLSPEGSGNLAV

Assay [1] has as its target T1, mouse Ephrin A5 on transduced WOP cells (mouse) (UniProt O08543).
T1 sequence: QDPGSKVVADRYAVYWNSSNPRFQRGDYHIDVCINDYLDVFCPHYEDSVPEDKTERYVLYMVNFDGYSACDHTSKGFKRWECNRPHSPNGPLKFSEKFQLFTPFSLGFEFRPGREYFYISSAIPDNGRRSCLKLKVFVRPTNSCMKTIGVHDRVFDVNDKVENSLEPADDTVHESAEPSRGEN

The target in assay [2] is T2, mouse Ephrin B1 on transduced WOP cells (mouse) (UniProt P52795).
T2 sequence: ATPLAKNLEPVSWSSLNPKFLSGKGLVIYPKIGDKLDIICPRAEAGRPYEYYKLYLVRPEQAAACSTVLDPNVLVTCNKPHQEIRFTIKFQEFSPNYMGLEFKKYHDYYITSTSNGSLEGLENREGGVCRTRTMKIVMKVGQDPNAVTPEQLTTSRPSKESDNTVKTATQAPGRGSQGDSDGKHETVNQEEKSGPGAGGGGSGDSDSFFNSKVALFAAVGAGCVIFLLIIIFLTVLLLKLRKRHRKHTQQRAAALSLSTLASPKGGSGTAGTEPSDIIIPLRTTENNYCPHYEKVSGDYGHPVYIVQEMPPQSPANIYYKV

The target of assay [3] is T3, mouse Ephrin A2 on transduced WOP cells (mouse) (UniProt P52801).
T3 sequence: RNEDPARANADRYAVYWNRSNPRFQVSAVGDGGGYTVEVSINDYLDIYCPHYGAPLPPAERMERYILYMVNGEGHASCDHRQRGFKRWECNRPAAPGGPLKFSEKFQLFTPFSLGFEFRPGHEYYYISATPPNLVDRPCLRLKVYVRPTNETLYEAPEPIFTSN

Assay [4] deals with T4, mouse Ephrin A4 on transduced WOP cells (mouse) (UniProt O08542).
T4 sequence: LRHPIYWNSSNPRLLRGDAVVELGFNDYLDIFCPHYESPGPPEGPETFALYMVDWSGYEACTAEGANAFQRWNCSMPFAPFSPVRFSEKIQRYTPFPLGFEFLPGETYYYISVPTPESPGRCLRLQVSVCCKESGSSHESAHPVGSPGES

The target of assay [5] is T5, mouse Ephrin A3 on transduced WOP cells (mouse) (UniProt O08545).
T5 sequence: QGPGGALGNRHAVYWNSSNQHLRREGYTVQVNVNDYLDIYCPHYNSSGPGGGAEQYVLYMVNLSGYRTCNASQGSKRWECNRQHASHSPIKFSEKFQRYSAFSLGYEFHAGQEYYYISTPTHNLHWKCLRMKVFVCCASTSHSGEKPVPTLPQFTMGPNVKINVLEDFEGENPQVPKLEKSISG

Assay [6] has as its target T6, mouse Ephrin A1 on transduced WOP cells (mouse) (UniProt P52793).
T6 sequence: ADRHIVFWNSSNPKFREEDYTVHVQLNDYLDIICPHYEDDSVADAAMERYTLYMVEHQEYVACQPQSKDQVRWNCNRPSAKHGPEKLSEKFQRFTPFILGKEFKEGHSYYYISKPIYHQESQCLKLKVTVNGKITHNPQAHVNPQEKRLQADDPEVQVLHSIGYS

The target in assay [7] is mouse Ephrin B2 on transduced WOP cells (mouse) (UniProt P52800).
For assay [8], the target named is T7, human Ephrin A4 on transduced WOP cells (human) (UniProt P52798).
T7 sequence: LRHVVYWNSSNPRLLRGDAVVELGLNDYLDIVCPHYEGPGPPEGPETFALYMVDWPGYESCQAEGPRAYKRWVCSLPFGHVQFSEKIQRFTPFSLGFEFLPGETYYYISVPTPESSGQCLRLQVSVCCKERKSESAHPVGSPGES

No constants are given. Whether binding was seen depends on the method and setting. Some entries that bind do so weakly or less than the wild type.

Consider “soluble Fc-tagged EphA2 (from UniProt P29317 24-537) (Fc fusion)”, for which the binding result in assay [1] was “binds”; in assay [2] it was “binds weakly”; in assay [3] it was “binds”; in assay [4] it was “binds”; in assay [5], “binds”; in assay [6], “binds”. In addition, the binding result in assay [7] was “binds weakly”; in assay [8], “binds”.

(Values after paper PMC3197615.)
